We go through one molecule from article PMC4609182.

The target in the test is T1, Full-length Parkin, unmodified (rat), Q9JK66.
T1 chain: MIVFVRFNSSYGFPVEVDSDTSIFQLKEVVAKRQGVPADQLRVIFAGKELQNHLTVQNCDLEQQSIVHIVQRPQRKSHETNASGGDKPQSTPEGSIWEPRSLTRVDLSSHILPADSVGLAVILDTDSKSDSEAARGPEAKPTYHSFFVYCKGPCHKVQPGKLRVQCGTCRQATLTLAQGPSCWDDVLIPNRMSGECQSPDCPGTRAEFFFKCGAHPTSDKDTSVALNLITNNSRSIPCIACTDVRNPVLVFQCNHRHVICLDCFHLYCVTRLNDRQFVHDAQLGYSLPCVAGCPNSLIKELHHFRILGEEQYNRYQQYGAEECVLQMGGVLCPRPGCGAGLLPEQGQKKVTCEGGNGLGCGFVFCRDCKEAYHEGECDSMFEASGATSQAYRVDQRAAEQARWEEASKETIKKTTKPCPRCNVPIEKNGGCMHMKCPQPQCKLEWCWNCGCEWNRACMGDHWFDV
The test is described as follows: SAXS; full-length Parkin at 1.5, 3 and 6 mg/ml; 20°C; 50 mM Tris–HCl pH 8.0, 150 mM NaCl, 2% glycerol, 10 mM DTT; mass estimate; both purified. Particulars: remark: other sources report otherwise.

These are yes or no findings as the source states them, for the method shown.

B1: Full-length Parkin, unmodified, Q9JK66 1-465 (enzyme)
chain: T1 chain
In the case of B1, the binding entry is reported as “no binding”.
